Results are given in words; binding and its absence hold for the method and conditions named. Binding seen in cells or lysates may run through a third protein. Some binding calls cover weakened binding; strength is not graded here.
Assays:
[1] = molecular target: OCT4 (human (endogenous in hESCs)) (UniProt Q01860); assay: co-IP; lysate of day 2 neuroectoderm differentiation cells (LDN193189 and SB431542 treatment), WT and BAF250a KO; anti-OCT4 IP, blots for β-CATENIN and active β-CATENIN
[2] = molecular target: OCT4 (human (endogenous in hESCs)) (UniProt Q01860); assay: co-IP; lysate of day 1 differentiated (mesodermal) hESCs, WT and BAF250a KO (4-OHT); anti-OCT4 antibody with Dynabeads at 4°C overnight; lysis buffer 20 mM HEPES pH 8.0, 150 mM NaCl, 1% NP-40, 2 mM EDTA; blots for β-CATENIN, active β-CATENIN and BRG1

Sequences of proteins named here, by UniProt entry; tags and fusion partners are left off.
UniProt Q01860: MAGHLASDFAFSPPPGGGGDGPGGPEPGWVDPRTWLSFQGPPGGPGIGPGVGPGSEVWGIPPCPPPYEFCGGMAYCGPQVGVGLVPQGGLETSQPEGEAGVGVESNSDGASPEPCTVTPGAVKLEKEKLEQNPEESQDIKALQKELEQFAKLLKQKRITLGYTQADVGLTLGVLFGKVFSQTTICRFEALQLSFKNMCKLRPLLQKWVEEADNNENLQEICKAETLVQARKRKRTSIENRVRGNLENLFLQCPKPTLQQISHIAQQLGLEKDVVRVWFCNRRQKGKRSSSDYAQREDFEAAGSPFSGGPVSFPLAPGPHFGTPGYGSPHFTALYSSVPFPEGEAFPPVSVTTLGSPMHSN
UniProt P35222: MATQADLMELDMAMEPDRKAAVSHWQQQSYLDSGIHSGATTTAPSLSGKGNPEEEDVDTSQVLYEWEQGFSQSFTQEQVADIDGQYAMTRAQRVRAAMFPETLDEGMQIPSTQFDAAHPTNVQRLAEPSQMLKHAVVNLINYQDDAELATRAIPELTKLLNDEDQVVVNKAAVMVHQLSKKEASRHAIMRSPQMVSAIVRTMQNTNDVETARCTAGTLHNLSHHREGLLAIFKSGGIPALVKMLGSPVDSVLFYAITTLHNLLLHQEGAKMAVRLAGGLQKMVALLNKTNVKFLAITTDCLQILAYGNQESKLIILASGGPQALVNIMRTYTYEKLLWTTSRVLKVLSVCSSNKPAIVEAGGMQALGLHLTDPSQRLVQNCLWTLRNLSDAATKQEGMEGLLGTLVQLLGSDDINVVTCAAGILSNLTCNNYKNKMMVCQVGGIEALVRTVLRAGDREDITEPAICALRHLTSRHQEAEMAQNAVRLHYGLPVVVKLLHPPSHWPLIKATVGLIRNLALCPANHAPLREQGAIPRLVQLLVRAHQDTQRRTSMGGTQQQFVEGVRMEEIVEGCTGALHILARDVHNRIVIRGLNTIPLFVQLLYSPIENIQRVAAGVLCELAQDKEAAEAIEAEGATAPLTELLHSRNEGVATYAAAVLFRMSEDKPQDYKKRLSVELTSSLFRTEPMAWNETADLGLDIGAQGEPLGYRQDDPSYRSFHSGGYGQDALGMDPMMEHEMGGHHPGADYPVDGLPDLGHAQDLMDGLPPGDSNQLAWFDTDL

binding [1]: binds | binding [2]: binds
Substance: β-CATENIN (from UniProt P35222 1-781)

Source: paper PMC6987383
